Results reported in patent publication US12310236B2, “Encapsulant preventing lead leakage on perovskite, method for encapsulating perovskite to prevent lead leakage and perovskite photosensitive device comprising the same” (PUKYONG NATIONAL UNIVERSITY INDUSTRY—UNIVERSITY COOPERATION …, priority 2023, dated 2025).

Test: Identification of lead leakage: encapsulated perovskite sample placed in 40 mL of water, water analyzed with ICPMS
Conditions: 30 seconds in water; without TiOx (FIG. 3)

c1ccc2c(c1)OCCOCCOc1ccccc1OCCOCCO2 [di-benzo]
concentration exhibiting the best encapsulating effect: 0.02 % by weight
